{"source": "PubChem BioAssay AID1347131", "about": "(National Center for Advancing Translational Sciences (NCATS), 2019)", "note": "Out of some 410,000 compounds screened, about 2,000 (0.49%) were called active. Inconclusive results, whose numbers are uncertain, are shown with a selection of clear calls. Calls come from the whole dose curve; tested in HEK293 reporter line. Potencies of inconclusive entries are doubtful fits and often do not repeat. Potency is the fitted concentration of half-maximal effect."}
{"test": "qHTS Assay for Foot and Mouth Disease Virus Antivirals: Primary Screen against the MLPCN compound library; note: nearly all actives have a fitted effect of over 55% in size", "conditions": "FMDV antiviral cell-based qHTS; activity, negative = inhibition: at 57.9 µM (top of the series)"}
{"molecule": "CCCCC/C=N/NC(=O)c1[nH]c2ccc([N+](=O)[O-])cc2c1C", "Potency": "inconclusive: 14.1 µM [inhibitor, partial curve]"}
{"molecule": "Cn1c2c(c(=O)n(C)c1=O)CN(CCc1ccccc1)CN2", "Potency": "inconclusive: 1.26 µM [inhibitor, full curve]"}
{"molecule": "CCOC(=O)c1ccccc1NC(=O)CN1CCC(n2nnc3cc(C(F)(F)F)ccc32)CC1", "Potency": "inactive"}
{"molecule": "CCN1C/C(=C\\c2cccc([N+](=O)[O-])c2)C(=O)/C(=C/c2cccc([N+](=O)[O-])c2)C1", "Potency": "inconclusive: 1.12 µM [inhibitor, full curve, poor fit]"}
{"molecule": "COc1ccc(/C=N/NC(=O)c2cccnc2)cc1COc1ccc([N+](=O)[O-])c(C)c1", "Potency": "inconclusive: 39.8 µM [inhibitor, partial curve, poor fit]"}
{"molecule": "COc1ccc(/C=N\\NC(=O)c2ccc(F)cc2)cc1COc1cc(F)ccc1[N+](=O)[O-]", "Potency": "inconclusive: 25.1 µM [inhibitor, partial curve, poor fit]"}
{"molecule": "COc1ccc(-n2cc3ccc([N+](=O)[O-])cc3n2)cc1", "Potency": "inconclusive: 39.8 µM [inhibitor, single point]"}
{"molecule": "Cc1cccc(-c2ncc(CN3CCN(C4CCCC4)C(CCO)C3)cn2)c1", "note": "(stereo not drawn)", "Potency": "inconclusive: 14.1 µM [inhibitor, partial curve]"}
{"molecule": "Cc1cccc(C2CC(c3ccc(F)cc3)Nc3nc(N)nn32)c1", "note": "(stereo not drawn)", "Potency": "inconclusive: 3.16 µM [inhibitor, full curve]"}
{"molecule": "COc1ccc(N2CCN(C(=O)c3sc4nc(-c5ccc(F)cc5)cn4c3C)CC2)cc1", "Potency": "inconclusive: 10 µM [inhibitor, partial curve, poor fit]"}
{"molecule": "O=C(COc1ccc(F)cc1)Nc1ccc2nc(SCC(=O)N3CCc4ccccc43)sc2c1", "Potency": "inactive"}
{"molecule": "CCOc1cccc2cc(-c3nc4ccc(C(=O)O)cc4[nH]3)c(=O)oc12", "Potency": "inconclusive: 11.2 µM [inhibitor, partial curve, poor fit]"}
{"molecule": "O=c1c(Br)ccc(Br)cc1Br", "Potency": "inconclusive: 20 µM [inhibitor, partial curve, poor fit]"}
{"molecule": "COc1ccc(C2C(O)C(c3c[nH]c4ccccc34)=NN2C(=O)CCl)cc1", "note": "(stereo not drawn)", "Potency": "inconclusive: 17.8 µM [inhibitor, partial curve, poor fit]"}
{"molecule": "COc1ccccc1C(=O)NCCn1cc(SCC(=O)Nc2cc(C)on2)c2ccccc21", "Potency": "inconclusive: 20 µM [inhibitor, partial curve]"}
{"molecule": "CCc1nc2ccccc2c(C(=O)OCC(=O)Nc2cccc(S(=O)(=O)N3CCOCC3)c2)c1C", "Potency": "inconclusive: 20 µM [inhibitor, partial curve, poor fit]"}
{"molecule": "COc1ccc(OCC(=O)Nc2ccc3c(c2)nc2n3CCSC2)cc1", "Potency": "inconclusive: 17.8 µM [inhibitor, single point]"}
{"molecule": "Cc1ccc(S(=O)(=O)Cc2cc(F)c([N+](=O)[O-])cc2[N+](=O)[O-])cc1", "Potency": "active: 15.8 µM"}
{"molecule": "Cc1nn(-c2ccccc2)nc1C(=O)Nc1cccc(C(=O)NC2CC2)c1", "Potency": "inconclusive: 31.6 µM [inhibitor, partial curve, poor fit]"}
{"molecule": "Cc1ccc(-c2csc3nc(SCC(N)=O)n(Cc4ccccc4)c(=O)c23)cc1", "Potency": "inconclusive: 31.6 µM [inhibitor, partial curve, poor fit]"}
{"molecule": "C=CCn1c(SC(C)C(=O)NCCC2=CCCCC2)nc2ccccc2c1=O", "note": "(stereo not drawn)", "Potency": "inconclusive: 31.6 µM [inhibitor, partial curve, poor fit]"}
{"molecule": "COc1ccc(-c2cc3nnc(-c4ccccc4)nc3s2)cc1", "Potency": "inconclusive: 8.91 µM [inhibitor, partial curve, poor fit]"}
{"molecule": "COc1ccc2[nH]c3nc(SC(C)C)nnc3c2c1", "Potency": "inconclusive: 12.6 µM [inhibitor, partial curve, poor fit]"}
{"molecule": "CC1C(=O)N(Cc2ccccc2)c2ccccc2N1C(=O)c1ccccc1", "note": "(stereo not drawn)", "Potency": "inconclusive: 31.6 µM [inhibitor, partial curve, poor fit]"}
{"molecule": "COc1ccccc1OCCNC(=O)c1cc(C2CC2)nc2c1cnn2C(C)C", "Potency": "inactive"}
{"molecule": "C=CCNc1nc(N)c(C(=C(C#N)C#N)c2ccc(Br)cc2)s1", "Potency": "inconclusive: 5.62 µM [inhibitor, partial curve, poor fit]"}
{"molecule": "O=C(Cn1nc(-c2ccccc2)nc1-c1ccccc1)OC1CCCCC1", "Potency": "inconclusive: 20 µM [inhibitor, single point]"}
{"molecule": "CCN1C(=O)[C@H]2[C@@H](c3ccc(SC4CCCCC4)cc3)N3CCCC[C@@]3(C(=O)OC)[C@H]2C1=O", "Potency": "inconclusive: 28.2 µM [inhibitor, partial curve, poor fit]"}
{"molecule": "COCc1c(C#N)c(NCc2cc(OC)c(OC)c(OC)c2)nc(C)c1[N+](=O)[O-]", "Potency": "inconclusive: 14.1 µM [inhibitor, partial curve, poor fit]"}
{"molecule": "CC(Sc1nnc(N)s1)c1ccccc1Cl", "note": "(stereo not drawn)", "Potency": "inconclusive: 5.62 µM [inhibitor, partial curve, poor fit]"}
{"molecule": "O=C(N/N=C/c1cccs1)c1ccc2c(c1)OCO2", "Potency": "inconclusive: 17.8 µM [inhibitor, single point]"}
{"molecule": "CCN(CC)S(=O)(=O)c1cc(NC(=O)c2ccc(-n3cncn3)c([N+](=O)[O-])c2)ccc1C", "Potency": "inconclusive: 12.6 µM [inhibitor, partial curve, poor fit]"}
{"molecule": "CC1(C)CC(=O)c2cc(OCC(=O)NCCCN3CCN(c4ccccc4F)CC3)ccc2O1", "Potency": "inconclusive: 22.4 µM [inhibitor, single point]"}
{"molecule": "COCc1cc(C)nc2sc3c(=O)n(-c4cccc5ccccc45)nnc3c12", "Potency": "inconclusive: 12.6 µM [inhibitor, partial curve, poor fit]"}
{"molecule": "Cc1cnc(NC(=O)COc2ccccc2Cl)s1", "Potency": "inconclusive: 10 µM [inhibitor, partial curve, poor fit]"}
{"molecule": "COc1cccc(Nc2nnc(SCC(=O)Nc3sccc3C(N)=O)s2)c1", "Potency": "inconclusive: 15.8 µM [inhibitor, partial curve, poor fit]"}
{"molecule": "Cc1cccc(N2CCN(c3ncnc4onc(C)c34)CC2C)c1", "note": "(stereo not drawn)", "Potency": "inconclusive: 3.16 µM [inhibitor, full curve, poor fit]"}
{"molecule": "CCc1nc2ccc(Br)cc2c(=O)n1-c1ccccc1C(F)(F)F", "Potency": "inconclusive: 28.2 µM [inhibitor, single point]"}
{"molecule": "Cc1nn2cnnc2c(C)c1Cc1ccc(Cl)cc1", "Potency": "inactive"}
{"molecule": "Cn1c(=O)oc2cc(S(=O)(=O)N3CCCC(C(=O)N4CCN(c5cccc(Cl)c5)CC4)C3)ccc21", "note": "(stereo not drawn)", "Potency": "inconclusive: 25.1 µM [inhibitor, partial curve, poor fit]"}
{"molecule": "Cc1c(C(=O)Nc2cc(S(=O)(=O)N3CCOCC3)ccc2N2CCN(C)CC2)oc2ccccc12", "Potency": "inconclusive: 6.31 µM [inhibitor, partial curve, poor fit]"}
{"molecule": "O=C(/C=C/c1cccnc1)c1cccc(O)c1", "Potency": "inconclusive: 31.6 µM [inhibitor, partial curve, poor fit]"}
{"molecule": "Cc1ccc(-n2c(-c3ccco3)nc3c(cnn3-c3ccc(C)cc3)c2=O)cc1", "Potency": "inconclusive: 28.2 µM [inhibitor, partial curve, poor fit]"}
{"molecule": "O=C(Nc1ccc(S(=O)(=O)N2CCCCC2)cc1)c1ccc(Cl)nc1", "Potency": "inconclusive: 39.8 µM [inhibitor, partial curve, poor fit]"}
{"molecule": "COc1cccc(Cl)c1NC(=O)N1CCc2c([nH]c3ccccc23)C1C(F)(F)F", "note": "(stereo not drawn)", "Potency": "inconclusive: 11.2 µM [inhibitor, single point]"}
{"molecule": "CC1C/C(=C\\c2cccnc2)C(=O)/C(=C/c2cccnc2)C1", "note": "(stereo not drawn)", "Potency": "inconclusive: 3.55 µM [inhibitor, full curve, poor fit]"}
{"molecule": "COc1ccc(C(=O)Nc2ccc([N+](=O)[O-])cn2)c(OC)c1", "Potency": "inconclusive: 8.91 µM [inhibitor, partial curve]"}
{"molecule": "O=C(CSc1nnc2c(Cl)cc(Cl)cn12)N1CCOCC1", "Potency": "inactive"}
{"molecule": "CCN(CCNC(=O)CN(C)S(=O)(=O)c1cccc2nsnc12)c1ccccc1", "Potency": "inconclusive: 28.2 µM [inhibitor, partial curve, poor fit]"}
{"molecule": "Cc1cc(O)c(C(=O)/C=C/c2cccc([N+](=O)[O-])c2)c(=O)o1", "Potency": "inconclusive: 17.8 µM [inhibitor, partial curve, poor fit]"}
{"molecule": "Cc1ccc(C2(C)NC(=O)N(CCOc3ccccc3)C2=O)cc1", "note": "(stereo not drawn)", "activity, negative = inhibition": "inconclusive: -32.4% [inhibitor]"}
{"molecule": "O=C(Nc1ccc2nc(SCC(=O)N3CCOCC3)sc2c1)c1ccc(Cl)cc1", "Potency": "inconclusive: 20 µM [inhibitor, partial curve, poor fit]"}
{"molecule": "Cc1cccn2cc(-c3ccc(Cl)cc3)nc12", "Potency": "inconclusive: 15.8 µM [inhibitor, single point]"}
{"molecule": "CO/N=C/c1ccc(N2CCN(C(=O)c3ccc(F)cc3)CC2)c([N+](=O)[O-])c1", "Potency": "inconclusive: 20 µM [inhibitor, partial curve, poor fit]"}
{"molecule": "COc1ccc(Cn2nnnc2C(C(C)C)N2CCN(c3ccccc3OC)CC2)cc1", "note": "(stereo not drawn)", "Potency": "inconclusive: 25.1 µM [inhibitor, partial curve, poor fit]"}
{"molecule": "CC(=O)C1=NN(c2ccccc2)C(c2cccs2)N1c1ccc(N(C)C)cc1", "note": "(stereo not drawn)", "Potency": "inconclusive: 15.8 µM [inhibitor, partial curve, poor fit]"}
{"molecule": "Cc1ccc(CS(=O)(=O)c2ncc(Cl)c(C(=O)Nc3nc4ccc(F)cc4s3)n2)cc1", "Potency": "inactive"}
{"molecule": "CN1CCN(C(c2ccccn2)c2cc(Cl)c3cccnc3c2O)CC1", "note": "(stereo not drawn)", "Potency": "inconclusive: 8.91 µM [inhibitor, partial curve]"}
